Values from PubChem BioAssay AID504804 (Drosophila RNAi Screening Center, 2011).
Screen: 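Knock-downs shielding fly cells from apoptosis caused by DNA damage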 (primary screen). Cells: Drosophila Kc cells. Knock-down reagent: long dsRNA against Drosophila genes, 0.5 µg dsRNA per well. Duration: 96 h (48 h knock-down, then 48 h drug). Challenge: doxorubicin 5 µg/ml for 48 h, added 48 h after dsRNA. Read-out: 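Luminescent ATP counts per replicate, not normalised, reflecting viable cells after 48 h dsRNA knock-down followed by 48 h of 5 µg/ml doxorubicin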. Direction: raw ATP luminescence: higher = more viable cells, protection from doxorubicin. Active means: 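z-score of 2 or more over plate mean in both duplicates, retained only when retests and separate dsRNAs confirm the protection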.
In all, the deposit lists about 19,000 reagents; shown is an unselected part of those with a known target gene and a result. In the full data, 47 (0.25%) got an active call. 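Signals are raw, not normalised; exact z-scores behind calls not deposited; actives needed confirmation, so some wells reaching 2 SD are inactive.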 A plus sign joins genes that one reagent is predicted to hit.

The first 9 records, ahead of the listing:
predicted target	amplicon	raw ATP luminescence, replicate 1	raw ATP luminescence, replicate 2	activity call
CG3355	DRSC00598	37143	30510	inactive
Drat	DRSC06600	46100	44853	inactive
CG33144	DRSC06132	61690	42170	inactive
CG33144	DRSC07024	34567	1.01e5	inactive
Cyp4g15	DRSC20240	3.07e5	2.87e5	inactive
CG15473	DRSC18056	40930	51340	inactive
Lerp	DRSC14750	41720	43080	inactive
Lerp	DRSC14751	58970	57150	inactive
Lerp	DRSC16030	75850	51890	inactive

Results, repeating the preview:
predicted target	amplicon	raw ATP luminescence, replicate 1	raw ATP luminescence, replicate 2	activity call
CG3355	DRSC00598	37143	30510	inactive
Drat	DRSC06600	46100	44853	inactive
CG33144	DRSC06132	61690	42170	inactive
CG33144	DRSC07024	34567	1.01e5	inactive
Cyp4g15	DRSC20240	3.07e5	2.87e5	inactive
CG15473	DRSC18056	40930	51340	inactive
Lerp	DRSC14750	41720	43080	inactive
Lerp	DRSC14751	58970	57150	inactive
Lerp	DRSC16030	75850	51890	inactive
Lerp	DRSC16031	54320	47200	inactive
Ugt49B2	DRSC16049	38180	47870	inactive
VhaPPA1-1	DRSC16170	56237	30913	inactive
alpha-Man-IIa	DRSC15393	57200	56800	inactive
fs(2)ltoPP43	DRSC02067	35963	36427	inactive
CG12213	DRSC14478	93757	33713	inactive
CG10752	DRSC09799	44333	36250	inactive
CG15753 (retired record)	DRSC19718	63110	70390	inactive
trem	DRSC15575	34090	28640	inactive
jb	DRSC20531	3.67e5	3.45e5	inactive
unc	DRSC20511	3.10e5	3.34e5	inactive
ord	DRSC04706	39890	57503	inactive
ND1 (retired record)	DRSC21273	2.82e5	2.25e5	inactive
park	DRSC11618	18790	20020	inactive
CG11089 + CG31381	DRSC13690	1.81e5	1.95e5	inactive
CG11089 + CG31381	DRSC14290	33173	43630	inactive
MED28	DRSC15721	51590	51690	inactive
CG13962	DRSC02304	43473	38157	inactive
CG33557	DRSC17854	3.76e5	3.38e5	inactive
CG43102	DRSC14797	44760	37560	inactive
CG43102	DRSC16239	31880	35590	inactive
nau	DRSC17011	55540	56400	inactive
abs	DRSC12372	20283	21667	inactive
hoe1	DRSC00265	1.16e5	1.06e5	inactive
hoe1	DRSC00333	30773	37510	inactive
hoe1	DRSC00353	31377	42677	inactive
raw	DRSC03599	38280	57963	inactive
raw	DRSC03600	35387	53977	inactive
Lcp2	DRSC07456	43923	77573	inactive
Gpdh1	DRSC03336	1.15e5	73677	inactive
Diap2	DRSC07444	49417	58297	inactive
CG8191	DRSC20091	3.35e5	2.95e5	inactive
MED4	DRSC11014	40980	36303	inactive
Idgf2	DRSC03350	87170	51940	inactive
Rad9	DRSC11263	20507	22610	inactive
Trs33	DRSC15990	98340	86920	inactive
Su(H)	DRSC03445	51140	66067	inactive
CG3719	DRSC18493	1.56e5	1.87e5	inactive
P5CDh1	DRSC11801	23083	23707	inactive
Cyp4p2	DRSC07373	55443	74773	inactive
CG15160	DRSC02461	27097	23850	inactive
CG12581	DRSC12206	25210	25220	inactive
CG12581	DRSC12207	54577	98513	inactive
Trpgamma	DRSC03626	50903	71997	inactive
CG11356	DRSC19401	3.06e5	3.05e5	inactive
CG31683 + CG18858	DRSC02703	67700	64053	inactive
Cdk5	DRSC07359	84613	56010	inactive
Orc2	DRSC16776	63547	26770	inactive
CG6738	DRSC16104	83210	80600	inactive
CG14074	DRSC10079	46760	36677	inactive
Cpn	DRSC16613	78710	44300	inactive
dally	DRSC08954	1.32e5	1.69e5	inactive
dally	DRSC11338	31113	30927	inactive
NKCC	DRSC12140	59803	18060	inactive
NKCC	DRSC12311	64610	66630	inactive
CG17944	DRSC12572	64523	57987	inactive
CG14969	DRSC08428	46860	34187	inactive
CG9147	DRSC03147	24397	41727	inactive
LpR2	DRSC13726	2.43e5	1.93e5	inactive
LpR2	DRSC13728	2.16e5	1.86e5	inactive
LpR2	DRSC15658	40440	46710	inactive
CG6171	DRSC15982	45193	27820	inactive
CG14829	DRSC10199	85477	67283	inactive
l(3)72Dp	DRSC10477	36800	36827	inactive
Hsc70-5	DRSC07442	78307	68357	inactive
CG7328	DRSC10812	57167	57027	inactive
CG31778	DRSC00283	1.03e5	65020	inactive
CG10077	DRSC09691	43017	40940	inactive
mmd	DRSC19672	1.16e5	98580	inactive
mmd	DRSC19673	3.14e5	2.69e5	inactive
mmd	DRSC20161	3.91e5	2.92e5	inactive
Ance-4	DRSC07104	54947	75713	inactive
CG14852	DRSC14976	53280	50350	inactive
NimB1	DRSC01880	80687	59733	inactive
Tsp42Eb + CG30160	DRSC04961	1.10e5	1.16e5	inactive
Tsp42Eb + CG30160	DRSC06791	41153	72860	inactive
